Among the data in publication PMC4148193, “Chromatin Insulator Factors Involved in Long-Range DNA Interactions and Their Role in the Folding of the Drosophila Genome” (PLoS Genetics, 2014) are binding result and Kd values, retold here.

Protein sequences, listed by entry. Tags and fused reporters are not part of them. Lines headed by an entry give the natural chain unless they say otherwise; changes in a name come on top.
UniProt Q24478: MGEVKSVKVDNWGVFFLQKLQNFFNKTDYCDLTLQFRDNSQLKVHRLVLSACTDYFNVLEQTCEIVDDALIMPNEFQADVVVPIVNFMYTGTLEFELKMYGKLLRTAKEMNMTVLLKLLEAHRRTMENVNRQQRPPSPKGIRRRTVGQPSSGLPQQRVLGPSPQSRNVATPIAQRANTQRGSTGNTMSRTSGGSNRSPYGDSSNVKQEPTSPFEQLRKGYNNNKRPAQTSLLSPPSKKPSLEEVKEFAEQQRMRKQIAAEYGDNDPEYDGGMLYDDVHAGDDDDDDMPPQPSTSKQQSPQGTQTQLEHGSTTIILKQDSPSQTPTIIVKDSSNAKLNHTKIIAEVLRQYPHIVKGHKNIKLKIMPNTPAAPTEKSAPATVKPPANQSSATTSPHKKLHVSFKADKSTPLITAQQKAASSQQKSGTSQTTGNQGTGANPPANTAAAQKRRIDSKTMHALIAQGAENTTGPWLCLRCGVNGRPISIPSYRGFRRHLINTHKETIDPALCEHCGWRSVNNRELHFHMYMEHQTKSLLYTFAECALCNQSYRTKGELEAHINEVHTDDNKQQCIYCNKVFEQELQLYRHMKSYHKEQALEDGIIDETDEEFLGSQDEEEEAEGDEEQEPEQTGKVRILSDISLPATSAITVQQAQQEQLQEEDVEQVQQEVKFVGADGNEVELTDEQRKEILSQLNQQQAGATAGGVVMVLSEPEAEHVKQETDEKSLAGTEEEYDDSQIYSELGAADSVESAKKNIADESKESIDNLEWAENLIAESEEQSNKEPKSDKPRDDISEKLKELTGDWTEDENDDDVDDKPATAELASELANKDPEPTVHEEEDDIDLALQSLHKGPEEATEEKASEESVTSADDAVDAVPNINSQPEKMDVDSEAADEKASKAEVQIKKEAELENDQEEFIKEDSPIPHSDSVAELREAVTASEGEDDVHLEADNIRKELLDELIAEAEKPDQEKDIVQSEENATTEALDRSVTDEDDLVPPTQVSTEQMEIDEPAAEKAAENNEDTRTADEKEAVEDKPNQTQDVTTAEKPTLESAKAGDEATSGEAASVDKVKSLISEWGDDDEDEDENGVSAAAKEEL

Data set [1] addresses BEAF32 (BEAF32B) (UniProt Q94513). Briefly: EMSA. The conditions noted are these: 200 nM BEAF32, preferential shift; EMSA: 150 mM NaCl, 30 mM Tris/HCl pH 7.4, 5 mM mercaptoethanol (supershift: 10 min on ice); recombinant protein; residues 1-282; protein details: N-term MBP, C-term 6xHis; label: SYBR Safe stain; probe letters rebuilt from the primers and the genome; part of a longer molecule.

In data set [2] the target is CP190 (UniProt Q24478). The data set is described as follows: EMSA. Conditions: 100-400 nM CP190; EMSA: 150 mM NaCl, 30 mM Tris/HCl pH 7.4, 5 mM mercaptoethanol (supershift: 10 min on ice); recombinant protein; residues 1-1096; protein details: N-term 6xHis; label: SYBR Safe stain; probe letters rebuilt from the primers and the genome; part of a longer molecule.
Data set [3] addresses T1, Chromator (UniProt Q86BS3).
T1 sequence (looked up): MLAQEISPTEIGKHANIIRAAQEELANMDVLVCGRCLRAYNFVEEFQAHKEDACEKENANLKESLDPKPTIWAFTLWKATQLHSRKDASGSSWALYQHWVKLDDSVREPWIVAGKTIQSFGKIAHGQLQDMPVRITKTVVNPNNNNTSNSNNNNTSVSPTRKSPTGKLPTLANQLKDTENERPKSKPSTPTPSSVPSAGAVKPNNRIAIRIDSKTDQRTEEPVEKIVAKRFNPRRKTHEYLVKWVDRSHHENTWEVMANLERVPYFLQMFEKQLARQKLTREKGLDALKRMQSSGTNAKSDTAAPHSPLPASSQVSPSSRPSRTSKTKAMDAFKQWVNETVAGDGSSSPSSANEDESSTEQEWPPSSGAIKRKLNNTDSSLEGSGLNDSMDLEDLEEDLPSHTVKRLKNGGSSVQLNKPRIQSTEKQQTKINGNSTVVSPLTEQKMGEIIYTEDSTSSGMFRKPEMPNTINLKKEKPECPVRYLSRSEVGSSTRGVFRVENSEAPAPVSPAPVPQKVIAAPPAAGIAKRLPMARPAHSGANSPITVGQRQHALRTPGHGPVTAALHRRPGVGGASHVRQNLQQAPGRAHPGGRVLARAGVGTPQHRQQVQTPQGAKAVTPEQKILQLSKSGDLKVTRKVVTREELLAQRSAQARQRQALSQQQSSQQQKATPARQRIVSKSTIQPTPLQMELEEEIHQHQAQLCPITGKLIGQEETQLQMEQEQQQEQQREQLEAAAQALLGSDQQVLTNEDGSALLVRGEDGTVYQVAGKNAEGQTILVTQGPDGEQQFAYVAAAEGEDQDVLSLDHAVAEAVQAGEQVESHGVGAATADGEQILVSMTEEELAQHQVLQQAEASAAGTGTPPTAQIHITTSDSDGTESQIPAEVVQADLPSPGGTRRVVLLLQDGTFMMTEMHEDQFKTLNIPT
The data set is described as follows: EMSA. The conditions noted are these: 450-900 nM Chromator; EMSA: 150 mM NaCl, 30 mM Tris/HCl pH 7.4, 5 mM mercaptoethanol (supershift: 10 min on ice); recombinant protein; residues 1-926; protein details: N-term 6xHis; label: SYBR Safe stain; probe letters rebuilt from the primers and the genome; part of a longer molecule.

Data set [4] addresses T1, Chromator. The data set is described as follows: fluorescence anisotropy. Conditions: Hill n=2±0.2, one value given, both fragments bound with no specificity; FA/FCS: 30 mM Tris/HCl pH 7.5, 100 mM NaCl, 20 uM ZnSO4, 5 mM mercaptoethanol, 0.01 mg/ml BSA, 0.004% Tween20, 2.5 nM DNA; recombinant protein; residues 1-926; protein details: N-term 6xHis; label: 5'-Cy3B (Table S5: cy3) on forward strand.

pKd: −log10 of the molar value. The exact form of at least one protein or probe is not confirmed. For some of these results: Where a protein sequence is shown, tags need not be part of it.

On to “GGAAATCACGTAACATTCGCCGAACAGCTGGCGACCATTTATCGATAGCGATACTCTTTTGGCGCCTGGATCTATCGACACTATGGCCTGCAATGTGAACATCTAAGGCTGCCCCCACAGATAAATTTAAAGTAAACATAATATAGATATGCACTCGTTAAGCGAATTAAAATTAGTTTTGAAATGAAACAAAAAAATCTAGAATTATTGGAAATTCCAAAGTTCGTCTGATAAATTACGCATAAATACAATTAAAATAAATATGAATATATAAAAATTCCCAATATAAAGGATCCCAAATCCCTCTCAATTTTACCGTCATTCATATTTTTTGTAAATTAAGTTGGCAATTAAGAAAAATGTTTAGCACTACCTATCGGATGACAAGCGTGTCACGAAAATATCGATGCTATCGCGCTGACTTCTCAGCTCTAGCTAGCAGTGTCA (double strand) [DNAtudor restriction fragment 1627 bp]”, for which the binding result in data set [1], in data set [2] and in data set [3] was “binds” throughout.
Regarding “GGACAGGTATTGTGCCATACTGACCACATCGTCTTGGTCTATAAGCTCCACGACATCC (double strand) [DNANS]”, the pKd in data set [4] was 6.44.
